Results reported in the supplement of paper PMC6331611.
± gives the standard deviation of the averaged measurements. Over roughly 1,600 compounds, “normalized intracellular growth (luminescence, IQM-normalized) in RAW264.7 macrophages” has its median near 1; the lowest 2% begin near 0.43. This is one part of the list.

Test system: Salmonella enterica serovar Typhimurium SL1344
Test: normalized intracellular growth (luminescence, IQM-normalized) in RAW264.7 macrophages (fraction of plate interquartile mean); higher = more bacterial growth (less inhibition)
Details: 10 µM

Compound	normalized intracellular growth (time point: T3 (3 h))	normalized intracellular growth (time point: Tfinal (~6 h))
CO/N=C1\C[C@]2(C[C@@H]3C[C@@H](C/C=C(\C)C[C@@H](C)/C=C/C=C4\CO[C@@H]5[C@H](O)C(C)=C[C@@H](C(=O)O3)[C@]45O)O2)O[C@H](/C(C)=C/C(C)C)[C@H]1C	0.979 ± 0.022	0.831 ± 0.033
CCOC(=O)NNc1nncc2ccccc12	1.21 ± 0.052	1.33 ± 0.14
CCN(CCO)CCCC(C)Nc1ccnc2cc(Cl)ccc12 (centres undefined)	1.12 ± 0.049	0.989 ± 0.048
Cc1nc(Nc2ncc(C(=O)Nc3c(C)cccc3Cl)s2)cc(N2CCN(CCO)CC2)n1	0.963 ± 0.061	1.04 ± 0.13
Cc1nc(-c2ccc(OCC(C)C)c(C#N)c2)sc1C(=O)O	1.02 ± 0.054	1.2 ± 0.14
CN(C)c1ccc(C(=C2C=CC(=[N+](C)C)C=C2)c2ccc(N(C)C)cc2)cc1	0.8927 ± 0.0022	0.931 ± 0.03
COc1ccc(CC2c3cc(OC)c(OC)cc3CC[N+]2(C)CCC(=O)OCCCCCOC(=O)CC[N+]2(C)CCc3cc(OC)c(OC)cc3C2Cc2ccc(OC)c(OC)c2)cc1OC (centres undefined)	1.06 ± 0.067	1 ± 0.19
CC(=O)[C@H]1CC[C@H]2[C@@H]3CC=C4C[C@@H](O)CC[C@]4(C)[C@H]3CC[C@]12C	0.972 ± 0.05	1.1 ± 0.053
O=c1ccc2ccccc2o1	1.02 ± 0.041	1.09 ± 0.062
CN(C)CCCN1c2ccccc2Sc2ccc(Cl)cc21	0.953 ± 0.022	0.951 ± 0.032
O=c1[nH]cnc2c1ncn2[C@@H]1O[C@H](CO)[C@@H](O)[C@H]1O	0.917 ± 0.048	0.976 ± 0.13
COc1cc([C@@H]2c3cc4c(cc3[C@@H](O[C@@H]3O[C@@H]5CO[C@@H](c6cccs6)O[C@H]5[C@H](O)[C@H]3O)[C@H]3COC(=O)[C@H]23)OCO4)cc(OC)c1O	1.1 ± 0.049	1.016 ± 0.0097
Nc1ccc(S(=O)(=O)Nc2ccccn2)cc1	0.976 ± 0.011	1.1 ± 0.033
CO[C@H]1C[C@H](O[C@H]2[C@H](C)[C@@H](O[C@@H]3O[C@H](C)C[C@H](N(C)C)[C@H]3O)[C@@H](C)C[C@@]3(CO3)C(=O)[C@H](C)[C@@H](O)[C@@H](C)[C@@H](C)OC(=O)[C@@H]2C)O[C@@H](C)[C@@H]1O	1.08 ± 0.014	1.02 ± 0.057
COc1ccnc(C[S+]([O-])c2nc3cc(OC(F)F)ccc3[nH]2)c1OC (centres undefined)	0.954 ± 0.032	0.992 ± 0.061
O=c1[nH]c(=O)c2ccccc2o1	0.963 ± 0.026	1.02 ± 0.078
Nc1ccn([C@@H]2O[C@H](CO)[C@@H](O)[C@@H]2O)c(=O)n1	0.9664 ± 0.0095	0.997 ± 0.037
CC(=O)Oc1cccc(C)c1 [meta-CRESYL ACETATE]	0.91 ± 0.021	0.667 ± 0.22
FC(F)(F)COCC(F)(F)F	0.946 ± 0.09	0.9 ± 0.27
CN1Cc2c(N)cccc2C(c2ccccc2)C1 (centres undefined)	1.11 ± 0.062	1.36 ± 0.13
CC(C)(O)c1ccccc1CC[C@@H](SCC1(CC(=O)O)CC1)c1cccc(/C=C/c2ccc3ccc(Cl)cc3n2)c1	0.989 ± 0.057	1.2 ± 0.046
CCN[C@@H]1C[C@H](N)[C@@H](O[C@H]2OC(CN)=CC[C@H]2N)[C@H](O)[C@H]1O[C@H]1OC[C@](C)(O)[C@H](NC)[C@H]1O	0.986 ± 0.033	0.632 ± 0.25
OCc1ccccc1O	1.07 ± 0.017	1.01 ± 0.022
COc1c(N2CCNC(C)C2)c(F)cc2c(=O)c(C(=O)O)cn(C3CC3)c12 (centres undefined)	1.02 ± 0.13	0.015 ± 0.0035
O=C(c1ccccc1)c1ccc2n1CCC2C(=O)O (centres undefined)	0.995 ± 0.065	1.09 ± 0.34
CN(C)CC(c1ccc(O)cc1)C1(O)CCCCC1 (centres undefined)	0.691 ± 0.059	0.688 ± 0.074

Ordered by SMILES length (rising): part of the list above
Compound	normalized intracellular growth (time point: T3 (3 h))	normalized intracellular growth (time point: Tfinal (~6 h))
CCOC(=O)NNc1nncc2ccccc12	1.21 ± 0.052	1.33 ± 0.14
COc1ccnc(C[S+]([O-])c2nc3cc(OC(F)F)ccc3[nH]2)c1OC (centres undefined)	0.954 ± 0.032	0.992 ± 0.061
CC(=O)[C@H]1CC[C@H]2[C@@H]3CC=C4C[C@@H](O)CC[C@]4(C)[C@H]3CC[C@]12C	0.972 ± 0.05	1.1 ± 0.053

Next part.

Compound	normalized intracellular growth (time point: T3 (3 h))	normalized intracellular growth (time point: Tfinal (~6 h))
NC(=O)[C@@H]1CCCN1C(=O)[C@H](Cc1c[nH]cn1)NC(=O)[C@@H]1CCC(=O)N1	1.02 ± 0.038	0.959 ± 0.044
CO/N=C(\C(=O)N[C@@H]1C(=O)N2C(C(=O)OC(C)OC(C)=O)=C(COC(N)=O)CS[C@H]12)c1ccco1 (some centres undefined)	1.09 ± 0.063	0.977 ± 0.23
Nc1ccn([C@@H]2CS[C@H](CO)O2)c(=O)n1	0.985 ± 0.021	0.972 ± 0.13
Cc1cc(N)c2ccccc2[n+]1CCCCCCCCCC[n+]1c(C)cc(N)c2ccccc21	0.978 ± 0.032	1.12 ± 0.068
COc1ccccc1OCC(O)COC(N)=O (centres undefined)	1.05 ± 0.018	0.806 ± 0.073
CCNC(=O)/C=C/c1cccc(Br)c1	1 ± 0.066	0.89 ± 0.15
C=CCCCCCCCCC(=O)[O-].C=CCCCCCCCCC(=O)[O-].[Zn+2]	1 ± 0.048	0.832 ± 0.1
COC(=O)Nc1nc2cc([S+]([O-])c3ccccc3)ccc2[nH]1 (centres undefined)	0.933 ± 0.021	1.14 ± 0.082
CCN(CC)CCOCCOC(=O)C(CC)(CC)c1ccccc1	0.997 ± 0.011	0.99 ± 0.1
CCCOc1ccc(C(=O)OCCN(CC)CC)cc1N	1.01 ± 0.023	0.911 ± 0.077
CC(=O)OCC(=O)[C@@]1(OC(C)=O)[C@@H](C)C[C@H]2[C@@H]3C[C@H](F)C4=CC(=O)C=C[C@]4(C)[C@@]3(F)[C@@H](O)C[C@@]21C	0.984 ± 0.045	0.955 ± 0.012
CC[C@@H](CO)NCCN[C@@H](CC)CO	1.22 ± 0.32	1.2 ± 0.2
C[C@]1(Cn2ccnn2)[C@H](C(=O)O)N2C(=O)C[C@H]2S1(=O)=O	1.1 ± 0.047	1.05 ± 0.086
C=CCOC(Cn1ccnc1)c1ccc(Cl)cc1Cl (centres undefined)	0.919 ± 0.028	1.02 ± 0.044
CC(=O)OCC(=O)[C@H]1CC[C@H]2[C@@H]3CCC4=CC(=O)CC[C@]4(C)[C@H]3CC[C@]12C	1.06 ± 0.031	0.99 ± 0.08
CC(CN(C)C)CN1c2ccccc2Sc2ccccc21 (centres undefined)	0.801 ± 0.019	0.986 ± 0.078
CC1(C)[C@@H](OC(=O)CCC(=O)O)CC[C@]2(C)[C@H]3C(=O)C=C4[C@@H]5C[C@@](C)(C(=O)O)CC[C@]5(C)CC[C@@]4(C)[C@]3(C)CC[C@@H]12	1.09 ± 0.057	0.837 ± 0.2
N=C(N)NCCN1CCCCCCC1	0.941 ± 0.024	0.988 ± 0.036
CC(C)CCCC(C)NC(C)C (centres undefined)	1 ± 0.017	0.999 ± 0.11
C#C[C@]1(O)CC[C@H]2[C@@H]3CCC4=CC(=O)CC[C@@H]4[C@H]3CC[C@@]21CC	1.03 ± 0.14	1.13 ± 0.12
NC(=O)NS(=O)(=O)c1ccc(N)cc1	0.98 ± 0.031	0.881 ± 0.095
CC(=O)N(CC(O)CN(C(C)=O)c1c(I)c(C(=O)NCC(O)CO)c(I)c(C(=O)NCC(O)CO)c1I)c1c(I)c(C(=O)NCC(O)CO)c(I)c(C(=O)NCC(O)CO)c1I (centres undefined)	1.04 ± 0.031	0.951 ± 0.037
c1ccc(CN(CC2=NCCN2)c2ccccc2)cc1	0.992 ± 0.011	0.982 ± 0.055
COc1cc(/C=C/C(=O)N2CCCCCCC2)cc(OC)c1OC	1.08 ± 0.016	0.924 ± 0.085
CNC(=N)NCCC[C@H](N)C(=O)O	1.11 ± 0.029	0.921 ± 0.26
Cc1cc(-c2ccc(/N=N/c3ccc4c(S(=O)(=O)O)cc(S(=O)(=O)O)c(N)c4c3O)c(C)c2)ccc1/N=N/c1ccc2c(S(=O)(=O)O)cc(S(=O)(=O)O)c(N)c2c1O	1.06 ± 0.038	1.36 ± 0.084
